This note sets out measurements from article PMC12441012.

Construct, isoform or probe ends are uncertain for at least one entry.

Data set [1] relates to AcNAC30 (Actinidia chinensis). Nature of the data set: competition with a labelled probe. To be noted: unlabelled probe 0x-200x, dose-dependent reduction of shift of N1; Kit binding buffer (Beyotime chemiluminescent EMSA kit; composition, salt and pH not stated), room temperature 30 min, 6% polyacrylamide gel (printed as denaturing); recombinant protein; protein details: GST (N-terminal, pGEX-4T-1); label: none (unlabelled competitor).

Data set [2] deals with AcNAC30 (Actinidia chinensis). Nature of the data set: EMSA. To be noted: Kit binding buffer (Beyotime chemiluminescent EMSA kit; composition, salt and pH not stated), room temperature 30 min, 6% polyacrylamide gel (printed as denaturing); recombinant protein; protein details: GST (N-terminal, pGEX-4T-1); label: biotin. Background: In EMSA bound probe runs differently from free probe, usually more slowly.

“TATAAAGATAATGAACATGTCCGACGCTGACCAC (double strand) [AcP5CS1 promoter cold probe]”: the binding result in data set [1] is “binds”.

Turning to “TATAAAGATAATGAACATGTCCGACGCTGACCAC (double strand) [AcP5CS1 promoter EMSA probe]”, the binding result in data set [2] was “binds”.
